Results are given in words; binding and its absence hold for the method and conditions named. Binding seen in cells or lysates may run through a third protein. Some entries that bind do so weakly or less than the wild type.
Target: toll-like receptor 4 (human (endogenous in primary osteoarthritic chondrocytes)) (UniProt O00206)
Test: co-IP; RIPA lysate of human primary osteoarthritic chondrocytes (control, 500 uM palmitate (PA), or PA after Ssn B pretreatment); anti-TLR4 antibody 1 h, magnetic beads at 4 °C overnight, four washes with ice-cold PBS; MD-2 detected by western blot

Protein sequences, listed by entry. Tags and fused reporters are not part of them. Residues count along the entry.
UniProt O00206, residues 24-839: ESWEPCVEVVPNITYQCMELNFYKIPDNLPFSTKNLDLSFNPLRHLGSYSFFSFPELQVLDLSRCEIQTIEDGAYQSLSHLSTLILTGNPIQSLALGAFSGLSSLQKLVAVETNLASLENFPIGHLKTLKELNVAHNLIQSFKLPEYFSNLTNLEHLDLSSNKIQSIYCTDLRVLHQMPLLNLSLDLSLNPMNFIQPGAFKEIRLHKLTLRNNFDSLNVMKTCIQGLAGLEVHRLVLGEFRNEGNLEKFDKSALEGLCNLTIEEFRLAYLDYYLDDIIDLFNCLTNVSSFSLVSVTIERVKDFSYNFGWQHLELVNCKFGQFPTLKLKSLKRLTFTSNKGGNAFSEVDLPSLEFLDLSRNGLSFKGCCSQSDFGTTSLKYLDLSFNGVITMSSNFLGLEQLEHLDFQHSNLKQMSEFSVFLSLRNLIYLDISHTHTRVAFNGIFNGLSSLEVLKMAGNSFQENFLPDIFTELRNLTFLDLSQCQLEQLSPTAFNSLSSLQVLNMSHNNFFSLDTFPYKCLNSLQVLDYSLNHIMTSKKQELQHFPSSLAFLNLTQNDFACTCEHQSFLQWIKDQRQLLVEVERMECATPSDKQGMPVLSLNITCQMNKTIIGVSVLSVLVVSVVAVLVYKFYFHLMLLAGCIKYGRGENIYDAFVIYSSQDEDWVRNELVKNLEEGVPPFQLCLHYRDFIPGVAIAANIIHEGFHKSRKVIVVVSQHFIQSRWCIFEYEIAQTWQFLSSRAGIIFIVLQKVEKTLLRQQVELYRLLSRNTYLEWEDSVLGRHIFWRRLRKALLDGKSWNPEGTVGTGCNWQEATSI

binding: binds
B1: myeloid differentiation protein-2 (protein, UniProt Q9Y6Y9 19-160)
chain: QKQYWVCNSSDASISYTYCDKMQYPISINVNPCIELKRSKGLLHIFYIPRRDLKQLYFNLYITVNTMNLPKRKEVICRGSDDDYSFCRALKGETVNTTISFSFKGIKFSKGKYKCVVEAISGSPEEMLFCLEFVILHQPNSN

Source: paper PMC8817118
